# PubChem BioAssay AID1159600, NIAID, 2016
# Aim: 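How human macrophage-like cells depend on pathway genes for TLR7/8 agonist response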 (primary screen)
# System: human THP-1 TNF reporter clone B5, made macrophage-like with PMA
# Knock-down reagent: single siRNA against human genes
# Timing: 4 h ligand stimulation, assayed 48 to 72 h after siRNA transfection
# Treatment: R848 (TLR7/8 agonist) for 4 hours before lysis; dose not given
# Read-out: 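Robust z-score of firefly over renilla TNF promoter signal after 4 h R848, plate median/MAD normalised, relative to negative controls, averaged across replicates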
# Reading the numbers: TNF reporter z-score: higher = stronger TNF promoter reporter signal after R848
# Call rule: 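Active where mean z-score is about 1.5 or more from zero in either direction; depositor grades use cut-offs of 1, 1.5, 2 and 2.5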
# Meaning of the calls: active = strong change in TNF reporter (up or down); inactive = little change
# This is one part, drawn at random, of 756 reagents tested. In the full data, 134 (18%) are marked active. 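Active includes both reduced and increased reporter signal, though most active siRNAs reduce it; R848 dose unknown.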 Unmarked entries are inactive. Reagents against one gene are numbered here. Not stated in the record: the amount of reagent.
Gene,siRNA no.,TNF reporter z-score
MAPKAPK2 (MAPK activated protein kinase 2),1,0.497
MAPKAPK2 (MAPK activated protein kinase 2),2,-0.222
MAPKAPK2 (MAPK activated protein kinase 2),3,-1.03
MAPKAPK2 (MAPK activated protein kinase 2),4,-0.759
MAPKAPK2 (MAPK activated protein kinase 2),5,0.179
MAPKAPK2 (MAPK activated protein kinase 2),6,-0.188
TLR1 (toll like receptor 1),1,2.21 (active)
TLR1 (toll like receptor 1),2,-0.279
TLR1 (toll like receptor 1),3,-2.95 (active)
TLR1 (toll like receptor 1),4,1.47
TLR1 (toll like receptor 1),5,-0.396
TLR1 (toll like receptor 1),6,-0.435
TLR2 (toll like receptor 2),1,1.34
TLR2 (toll like receptor 2),2,0.415
TLR2 (toll like receptor 2),3,-1.62 (active)
TLR2 (toll like receptor 2),4,1.28
TLR2 (toll like receptor 2),5,-0.676
TLR2 (toll like receptor 2),6,0.319
IL33R (interleukin 33 receptor),1,0.00084
IL33R (interleukin 33 receptor),2,-0.534
IL33R (interleukin 33 receptor),3,0.355
IL33R (interleukin 33 receptor),4,1
IL33R (interleukin 33 receptor),5,-2.57 (active)
IL33R (interleukin 33 receptor),6,-0.0474
ITGAX (integrin subunit alpha X),1,0.917
ITGAX (integrin subunit alpha X),2,-1.72 (active)
ITGAX (integrin subunit alpha X),3,-0.0882
ITGAX (integrin subunit alpha X),4,-1.22
ITGAX (integrin subunit alpha X),5,-1.62 (active)
ITGAX (integrin subunit alpha X),6,-0.133
"RELB (RELB proto-oncogene, NF-kB subunit)",1,-0.154
"RELB (RELB proto-oncogene, NF-kB subunit)",2,-0.322
"RELB (RELB proto-oncogene, NF-kB subunit)",3,-0.311
"RELB (RELB proto-oncogene, NF-kB subunit)",4,-1.21
"RELB (RELB proto-oncogene, NF-kB subunit)",5,-0.7
"RELB (RELB proto-oncogene, NF-kB subunit)",6,0.449
TLR8 (toll like receptor 8),1,-2.31 (active)
TLR8 (toll like receptor 8),2,-2.78 (active)
TLR8 (toll like receptor 8),3,-3.75 (active)
TLR8 (toll like receptor 8),4,-2.98 (active)
TLR8 (toll like receptor 8),5,-2.62 (active)
TLR8 (toll like receptor 8),6,-2.69 (active)
"REL (REL proto-oncogene, NF-kB subunit)",1,1.44
"REL (REL proto-oncogene, NF-kB subunit)",2,-0.952
"REL (REL proto-oncogene, NF-kB subunit)",3,-0.76
"REL (REL proto-oncogene, NF-kB subunit)",4,-1.17
"REL (REL proto-oncogene, NF-kB subunit)",5,-0.46
"REL (REL proto-oncogene, NF-kB subunit)",6,-0.449

Records listed so far marked active, once more:
Gene,siRNA no.,TNF reporter z-score
TLR1 (toll like receptor 1),1,2.21 (active)
TLR1 (toll like receptor 1),3,-2.95 (active)
TLR2 (toll like receptor 2),3,-1.62 (active)
IL33R (interleukin 33 receptor),5,-2.57 (active)
ITGAX (integrin subunit alpha X),2,-1.72 (active)
ITGAX (integrin subunit alpha X),5,-1.62 (active)
TLR8 (toll like receptor 8),1,-2.31 (active)
TLR8 (toll like receptor 8),2,-2.78 (active)
TLR8 (toll like receptor 8),3,-3.75 (active)
TLR8 (toll like receptor 8),4,-2.98 (active)
TLR8 (toll like receptor 8),5,-2.62 (active)
TLR8 (toll like receptor 8),6,-2.69 (active)

The results go on.
Gene,siRNA no.,TNF reporter z-score
MAPK14 (mitogen-activated protein kinase 14),1,-0.112
MAPK14 (mitogen-activated protein kinase 14),2,-1.96 (active)
MAPK14 (mitogen-activated protein kinase 14),3,-1.13
MAPK14 (mitogen-activated protein kinase 14),4,-1.22
MAPK14 (mitogen-activated protein kinase 14),5,-0.192
MAPK14 (mitogen-activated protein kinase 14),6,-1.09
MYD88 (MYD88 innate immune signal transduction adaptor),1,-4.48 (active)
MYD88 (MYD88 innate immune signal transduction adaptor),2,-5 (active)
MYD88 (MYD88 innate immune signal transduction adaptor),3,-4.54 (active)
MYD88 (MYD88 innate immune signal transduction adaptor),4,-2.12 (active)
MYD88 (MYD88 innate immune signal transduction adaptor),5,0.471
MYD88 (MYD88 innate immune signal transduction adaptor),6,0.591
PIK3R2 (phosphoinositide-3-kinase regulatory subunit 2),1,0.0386
PIK3R2 (phosphoinositide-3-kinase regulatory subunit 2),2,-1.37
PIK3R2 (phosphoinositide-3-kinase regulatory subunit 2),3,0.327
PIK3R2 (phosphoinositide-3-kinase regulatory subunit 2),4,-0.854
PIK3R2 (phosphoinositide-3-kinase regulatory subunit 2),5,1.09
PIK3R2 (phosphoinositide-3-kinase regulatory subunit 2),6,0.194
TAB2 (TGF-beta activated kinase 1 (MAP3K7) binding protein 2),1,2.21 (active)
TAB2 (TGF-beta activated kinase 1 (MAP3K7) binding protein 2),2,-1.16
TAB2 (TGF-beta activated kinase 1 (MAP3K7) binding protein 2),3,-1.99 (active)
TAB2 (TGF-beta activated kinase 1 (MAP3K7) binding protein 2),4,-2.08 (active)
TAB2 (TGF-beta activated kinase 1 (MAP3K7) binding protein 2),5,-2.9 (active)
TAB2 (TGF-beta activated kinase 1 (MAP3K7) binding protein 2),6,-1.99 (active)
ELK1 (ETS transcription factor ELK1),1,-0.793
ELK1 (ETS transcription factor ELK1),2,-2.26 (active)
ELK1 (ETS transcription factor ELK1),3,-1.26
ELK1 (ETS transcription factor ELK1),4,-0.566
ELK1 (ETS transcription factor ELK1),5,-0.948
ELK1 (ETS transcription factor ELK1),6,0.351
NFKBIE (NFKB inhibitor epsilon),1,-1.44
NFKBIE (NFKB inhibitor epsilon),2,-1.85 (active)
NFKBIE (NFKB inhibitor epsilon),3,-0.575
NFKBIE (NFKB inhibitor epsilon),4,-0.821
NFKBIE (NFKB inhibitor epsilon),5,-1.83 (active)
NFKBIE (NFKB inhibitor epsilon),6,-1.98 (active)
LY86 (lymphocyte antigen 86),1,0.795
LY86 (lymphocyte antigen 86),2,-1.43
LY86 (lymphocyte antigen 86),3,-0.595
LY86 (lymphocyte antigen 86),4,-1.98 (active)
LY86 (lymphocyte antigen 86),5,-1.65 (active)
LY86 (lymphocyte antigen 86),6,-0.831
ITGAM (integrin subunit alpha M),1,0.804
ITGAM (integrin subunit alpha M),2,-1.27
ITGAM (integrin subunit alpha M),3,-0.0326
ITGAM (integrin subunit alpha M),4,-0.585
ITGAM (integrin subunit alpha M),5,-0.288
ITGAM (integrin subunit alpha M),6,-0.437
MAP3K8 (mitogen-activated protein kinase kinase kinase 8),1,-1.87 (active)
MAP3K8 (mitogen-activated protein kinase kinase kinase 8),2,-1.28
MAP3K8 (mitogen-activated protein kinase kinase kinase 8),3,-1.59 (active)
MAP3K8 (mitogen-activated protein kinase kinase kinase 8),4,-1.43
MAP3K8 (mitogen-activated protein kinase kinase kinase 8),5,-2.71 (active)
MAP3K8 (mitogen-activated protein kinase kinase kinase 8),6,-0.0437
IRAK1 (interleukin 1 receptor associated kinase 1),1,-1.1
IRAK1 (interleukin 1 receptor associated kinase 1),2,-2.82 (active)
IRAK1 (interleukin 1 receptor associated kinase 1),3,-3.37 (active)
IRAK1 (interleukin 1 receptor associated kinase 1),4,-1.15
IRAK1 (interleukin 1 receptor associated kinase 1),5,-2.16 (active)
IRAK1 (interleukin 1 receptor associated kinase 1),6,-2.67 (active)
IRF3 (interferon regulatory factor 3),1,-2.49 (active)
IRF3 (interferon regulatory factor 3),2,-0.779
IRF3 (interferon regulatory factor 3),3,-1.11
IRF3 (interferon regulatory factor 3),4,0.374
IRF3 (interferon regulatory factor 3),5,-1.34
IRF3 (interferon regulatory factor 3),6,-1.39
MAP2K7 (mitogen-activated protein kinase kinase 7),1,-0.432
MAP2K7 (mitogen-activated protein kinase kinase 7),2,-1.27
MAP2K7 (mitogen-activated protein kinase kinase 7),3,-0.711
MAP2K7 (mitogen-activated protein kinase kinase 7),4,1.23
MAP2K7 (mitogen-activated protein kinase kinase 7),5,-3.11 (active)
MAP2K7 (mitogen-activated protein kinase kinase 7),6,-0.852
TANK (TRAF family member associated NFKB activator),1,0.795
TANK (TRAF family member associated NFKB activator),2,-0.117
TANK (TRAF family member associated NFKB activator),3,0.063
TANK (TRAF family member associated NFKB activator),4,0.0594
TANK (TRAF family member associated NFKB activator),5,-1.39
TANK (TRAF family member associated NFKB activator),6,1.03
"ETS1 (ETS proto-oncogene 1, transcription factor)",1,-1.51 (active)
"ETS1 (ETS proto-oncogene 1, transcription factor)",2,-0.406
"ETS1 (ETS proto-oncogene 1, transcription factor)",3,-0.334
"ETS1 (ETS proto-oncogene 1, transcription factor)",4,-0.278
"ETS1 (ETS proto-oncogene 1, transcription factor)",5,1.89 (active)
"ETS1 (ETS proto-oncogene 1, transcription factor)",6,-1.12
PIK3CB,1,-1.07
PIK3CB,2,-0.474
PIK3CB,3,-0.44
PIK3CB,4,-0.014
PIK3CB,5,1.59 (active)
PIK3CB,6,0.161
CXCL9 (C-X-C motif chemokine ligand 9),1,-1.65 (active)
CXCL9 (C-X-C motif chemokine ligand 9),2,-0.582
CXCL9 (C-X-C motif chemokine ligand 9),3,0.709
CXCL9 (C-X-C motif chemokine ligand 9),4,-2.35 (active)
CXCL9 (C-X-C motif chemokine ligand 9),5,1.34
CXCL9 (C-X-C motif chemokine ligand 9),6,-1.33
